Screen size: about 360,000 compounds; about 7,500 (2.1%) were called active. The inconclusive results got no clear call from the source; some entries with a clear call stand among them for comparison. Calls come from the whole dose curve; as a rule, active = well fitted inhibition curve with a large enough effect; inconclusive = small, poorly fitted or top-dose-only effect, or effect the other way; inactive = flat fitted curve, though single readings scatter. Where the call is inconclusive, the potency comes from a doubtful curve fit.
Assay: Nrf2 qHTS screen for inhibitors; note: nearly all actives have a fitted effect of over 60% in size
Conditions: A549 ARE-Fluc reporter, luciferase luminescence, 18-24 h; activity change, negative = inhibition: at 46 µM (top of the series)
Method in brief: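 Nrf2 activity is the BugLite luminescence, read 15 min after reagent at room temperature, following CellTiter-Fluor cytotoxicity readout (30 min, 37C). Compound titrations were applied for 18-24 h to 5000 A549 ARE_Fluc cells/well in 5% FBS OPTI-MEM.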
% is set by controls: 0 for no effect and ±100 for the full control effect; potency is the fitted concentration of half-maximal effect.

Row | Compound | activity change, negative = inhibition | Potency
1 | CCOc1ccccc1C(=O)NCC(=O)OCC(=O)c1c(N)n(C)c(=O)n(C)c1=O | inactive: 2% | 
2 | C=CCn1c(O)c(N=NC(=S)Nc2ccccc2F)c2ccccc21 |  | inconclusive: 23.1 µM [falling, single point]
3 | CC(C)(C)OC(=O)NCCCC[C@H](NC(=O)c1nc[nH]c1C(=O)NC1CCN(C(=O)OC(C)(C)C)CC1)C(=O)OC(C)(C)C |  | inconclusive: 23.1 µM [falling, single point]
4 | CC(OC(=O)c1nn(C)c(=O)c2ccccc12)C(=O)NCc1ccc2c(c1)OCO2 (centres undefined) |  | inconclusive: 29.1 µM [activator, single point]
5 | CC1=C(c2ccc(C)cc2)S(=O)(=O)N=C1N1CCN(c2ccccc2)CC1 |  | inconclusive: 13 µM [falling, partial curve]
6 | Cc1ccc2nc(-c3ccncc3)c(Nc3ccccc3C)n2c1 |  | inconclusive: 9.2 µM [activator, partial curve, poor fit]
7 | Cc1c(C)c(C)c(S(=O)(=O)Nc2ccc3[nH]c(=O)[nH]c3c2)c(C)c1C |  | inconclusive: 25.9 µM [falling, single point]
8 | COc1ccc(/C=N/n2cnc3c(sc(=S)n3-c3ccccc3)c2=O)cc1 |  | inconclusive: 6.51 µM [activator, single point]
9 | O=C(NCCc1ccccc1F)C1CCCN1S(=O)(=O)c1ccc2ccccc2c1 (centres undefined) |  | inconclusive: 29.1 µM [falling, single point]
10 | O=C(NCCS(=O)(=O)N1CCN(c2ccccc2F)CC1)c1c(F)cccc1F |  | inconclusive: 25.9 µM [falling, single point]
11 | CCC(C)NC(=O)c1cn(CC)c2ccc(S(=O)(=O)N3CCCCC3)cc2c1=O (centres undefined) |  | inconclusive: 18.4 µM [falling, single point]
12 | Cc1nc2ccccn2c1C(=O)Nc1ccc2c(c1)OCCO2 |  | inconclusive: 1.16 µM [activator, full curve]
13 | O=C(CSc1nncn2c1cc1sccc12)Nc1ccccc1C(F)(F)F |  | active: 20.6 µM
14 | COc1ccc(S(=O)(=O)N2CCN(CC(=O)Nc3sccc3C(N)=O)CC2)cc1OC | inactive: -27.7% | 
15 | O=C(CCCn1ncn2c(cc3occc32)c1=O)NCc1cccc(Cl)c1 |  | inconclusive: 13 µM [falling, partial curve, poor fit]
16 | Cc1ccc(C(=O)Nc2ccccc2C(=O)NC(Cc2c[nH]c3ccccc23)C(=O)O)cc1 (centres undefined) |  | inconclusive: 23.1 µM [activator, single point]
17 | Cc1ccc(NC(=O)CN2CCOCC2)cc1C | inactive: 25.3% | 
18 | Cc1cccn2c(=O)c3cc(C#N)c(=NC(=O)c4ccccc4)n(Cc4ccco4)c3nc12 |  | inconclusive: 16.4 µM [falling, partial curve, poor fit]
19 | CCOc1ccc(Br)cc1S(=O)(=O)Nc1ccc(Cl)c(S(=O)(=O)N(C)C)c1 |  | inconclusive: 18.4 µM [falling, single point]
20 | CSc1cc(-c2ccncc2)nc(-c2ccc(Cl)cc2)c1 |  | inconclusive: 16.4 µM [falling, single point]
21 | CCOC(=O)c1c(C)oc2nc(C)nc(NCc3ccc(C)cc3)c12 | inactive: -20.6% | 
22 | CCOC(=O)c1c(-c2ccc3ccccc3c2)csc1NC(=O)CCCC(=O)O |  | inconclusive: 20.6 µM [falling, single point]

Row | Compound | activity change, negative = inhibition | Potency
23 | CCOc1cc(N(CC)CC)ccc1/C=C(/C#N)c1nc2ccccc2[nH]1 | inactive: -15.5% | 
24 | Cc1cc(C)cc(N(CCC#N)C(=O)COC(=O)CCc2c[nH]c3ccccc23)c1 | inactive: 4.87% | 
25 | CCOc1ccccc1N(CC(=O)Nc1ccc(OC)cc1OC)S(=O)(=O)c1ccccc1 | inactive: 3.38% | 
26 | N/C(=N\OC(=O)c1cccc2ccccc12)c1ccccn1 |  | inconclusive: 2.91 µM [activator, full curve, poor fit]
27 | CCCc1ccc(OCc2ccc(C(=O)NCc3cccnc3)o2)c(OC)c1 |  | inconclusive: 14.6 µM [falling, partial curve, poor fit]
28 | Cn1c(CCN2CCN(c3ccccn3)CC2)nc2cc(NC(=O)COc3ccc(Cl)cc3)ccc21 |  | inconclusive: 23.1 µM [falling, partial curve, poor fit]
29 | CC(C)NC(=O)c1ccc(Cn2c(=O)c3cccn3c3cccnc32)cc1 |  | inconclusive: 16.4 µM [activator, partial curve, poor fit]
30 | COc1ccc(NC(=O)CN(C)C(=O)c2cccc(S(=O)(=O)Nc3ccccc3Cl)c2)cc1 |  | inconclusive: 23.1 µM [falling, partial curve, poor fit]
31 | COc1cc(C#Cc2c(-c3cncn3C)n(C)c3ccc(-c4cc(OC)c(OC)c(OC)c4)cc23)cc(OC)c1 |  | inconclusive: 29.1 µM [falling, single point]
32 | Cc1ccc(S(=O)(=O)N2[C@@H](c3ccc(C(C)(C)C)cc3)C(C(=O)O)=CC[C@H]2c2ccc3c(c2)OCO3)cc1 |  | active: 23.1 µM
33 | Oc1c(N=NC(=S)Nc2ccccc2F)c2ccccc2n1Cc1ccccc1F |  | inconclusive: 6.51 µM [falling, full curve, poor fit]
34 | CCOC(=O)c1c(NC(=O)C(C)Sc2cn(CCNC(=O)c3ccc(OC)c(OC)c3)c3ccccc23)sc2c1CCC2 (centres undefined) | inactive: -23.7% | 
35 | N#C/C(=C\c1ccc(N2CCOCC2)o1)C(=O)Nc1ccc(O)cc1 |  | inconclusive: 29.1 µM [activator, single point]
36 | COc1cccc(N2CCN(C(=O)c3c(C)oc4ncnc(N5CCCCC5)c34)CC2)c1 | inactive: -3.14% | 
37 | COCCn1c(-c2ccc(Cl)cc2)cnc1SCC(=O)NCCc1ccc(OC)c(OC)c1 |  | inconclusive: 20.6 µM [falling, single point]
38 | CC1CCN(S(=O)(=O)c2ccc(C(=O)NC3CCS(=O)(=O)C3)cc2)CC1 (centres undefined) |  | inconclusive: 32.6 µM [falling, partial curve, poor fit]
39 | O=C(Cn1nnc(-c2ccccc2F)n1)N1CCCCC1 |  | inconclusive: 6.51 µM [activator, partial curve]
40 | O=C(CN(Cc1ccc(Br)cc1)S(=O)(=O)c1ccccc1)NCc1ccncc1 |  | inconclusive: 18.4 µM [falling, single point]
41 | O=C(NCc1ccccc1Cl)c1ccc(S(=O)(=O)Nc2cccc(C(F)(F)F)c2)cc1 |  | inconclusive: 10.3 µM [falling, partial curve, poor fit]
42 | OCCCNc1ncnc2c1[nH]c1ccccc12 | inactive: -11.3% | 
43 | Cc1ccc(O)c(-c2cc(C(F)(F)F)[nH]n2)c1 |  | inconclusive: 0.651 µM [falling, partial curve, poor fit]
44 | Cc1ccc(NS(=O)(=O)c2ccc(C(=O)N3CCCCCC3)cc2)cc1 |  | inconclusive: 20.6 µM [falling, single point]

Six structures out of the list, sorted by count of non-hydrogen atoms, rising:
Row | Compound | activity change, negative = inhibition | Potency
43 | Cc1ccc(O)c(-c2cc(C(F)(F)F)[nH]n2)c1 |  | inconclusive: 0.651 µM [falling, partial curve, poor fit]
33 | Oc1c(N=NC(=S)Nc2ccccc2F)c2ccccc2n1Cc1ccccc1F |  | inconclusive: 6.51 µM [falling, full curve, poor fit]
36 | COc1cccc(N2CCN(C(=O)c3c(C)oc4ncnc(N5CCCCC5)c34)CC2)c1 | inactive: -3.14% | 
37 | COCCn1c(-c2ccc(Cl)cc2)cnc1SCC(=O)NCCc1ccc(OC)c(OC)c1 |  | inconclusive: 20.6 µM [falling, single point]
32 | Cc1ccc(S(=O)(=O)N2[C@@H](c3ccc(C(C)(C)C)cc3)C(C(=O)O)=CC[C@H]2c2ccc3c(c2)OCO3)cc1 |  | active: 23.1 µM
34 | CCOC(=O)c1c(NC(=O)C(C)Sc2cn(CCNC(=O)c3ccc(OC)c(OC)c3)c3ccccc23)sc2c1CCC2 (centres undefined) | inactive: -23.7% | 

Additional records

Row | Compound | activity change, negative = inhibition | Potency
45 | COc1ccc(N2CC3=C(C2=O)C(c2ccc(Br)cc2)NC(=O)N3C)cc1 (centres undefined) |  | inconclusive: 6.51 µM [activator, single point]
46 | COc1ccc(OC)c(S(=O)(=O)N2CCN(C(=O)c3cc(C4CC4)nn3-c3ccccc3)CC2)c1 |  | active: 25.9 µM
47 | CCOC(=O)c1sc2nc(C)cc(-c3ccccc3)c2c1N |  | inconclusive: 23.1 µM [falling, partial curve, poor fit]
48 | Cc1ccc(Cl)cc1N1CCN(CCCNc2ncnc3onc(-c4ccc(F)cc4)c23)CC1 |  | inconclusive: 29.1 µM [falling, single point]
49 | Cc1cccc(N2CCN(S(=O)(=O)c3ccc4oc(=O)c5ncn(C)c5c4c3)CC2C)c1 (centres undefined) | inactive: 7.68% | 
50 | O=C(CSc1nc2sccc2c(=O)[nH]1)N1CCN(c2ccccc2)CC1 |  | inconclusive: 18.4 µM [falling, single point]
51 | O=C(c1ccc(-c2ccc(Cl)cc2)o1)N1CCN(c2ccc([N+](=O)[O-])cc2Cl)CC1 |  | inconclusive: 23.1 µM [falling, single point]
52 | Cc1ccccc1C(=O)NCC(c1cccnc1)N1CCc2ccccc21 (centres undefined) | inactive: -8.9% | 
53 | CC(=O)NC(c1cccs1)c1cc(F)c2cccnc2c1O (centres undefined) |  | inconclusive: 23.1 µM [falling, partial curve]
54 | CC1=C(C(=O)OC2CCCCC2)C(c2cccnc2)n2ncnc2N1 (centres undefined) |  | inconclusive: 23.1 µM [falling, partial curve]
55 | COc1ccc(C(=O)NC(NC(=S)Nc2ccc(S(N)(=O)=O)cc2)C(Cl)(Cl)Cl)cc1 (centres undefined) | inactive: 11.9% | 
56 | CCOC(=O)C1CCN(C(=O)c2cc3cc4cc(OC)ccc4nc3o2)CC1 |  | inconclusive: 10.3 µM [activator, partial curve, poor fit]
57 | Cc1cccc[n+]1CCCCCCCCCC[n+]1ccccc1C |  | inconclusive: 1.64 µM [falling, full curve]
58 | Cc1cc(C(=O)COc2ccc(C#N)cc2)c(C)n1CC1CCCO1 (centres undefined) |  | inconclusive: 16.4 µM [falling, single point]
59 | COc1ccc(C2CC(c3cccs3)=NN2C(=O)c2ccccc2)cc1OC (centres undefined) |  | inconclusive: 6.51 µM [falling, single point]
60 | Cc1ccc(C)c(NC(=O)CSc2ncc3c(n2)-c2ccc(Cl)cc2N(C)S3(=O)=O)c1 | inactive: 2.9% | 
61 | CC(=O)OC(COc1ccccc1)Cn1cnc2cc(C)c(C)cc21 (centres undefined) |  | inconclusive: 0.013 µM [falling, full curve, poor fit]
62 | O=c1[nH]c(/C=C/c2ccc(OC(F)F)cc2)nc2c1cnn2-c1ccccc1 |  | active: 16.4 µM
63 | Cc1onc(-c2c(F)cccc2Cl)c1C(=O)Nc1sc2c(c1C#N)CCC(C(C)(C)C)C2 (centres undefined) |  | inconclusive: 18.4 µM [falling, partial curve, poor fit]
64 | O=C(CCSCc1ccccc1Cl)N1CCN(c2cccc(Cl)c2)CC1 |  | inconclusive: 25.9 µM [falling, single point]

Reference: PubChem BioAssay AID504444 (National Center for Advancing Translational Sciences (NCATS), 2011)
